Laboratory results reported in the supplement of paper PMC12819154, “High-throughput peptide-centric local stability assay extends protein–ligand identification to membrane proteins, tissues and bacteria” (Nature Structural & Molecular Biology, 2025).
Some of the results follow. Most values lie at the level of the controls, where differences are scatter.

Amino acid sequences for entries named in this document (tags omitted). A change or cut given only in a name is not applied to a line headed by its entry.
UniProt Q9Z2F7: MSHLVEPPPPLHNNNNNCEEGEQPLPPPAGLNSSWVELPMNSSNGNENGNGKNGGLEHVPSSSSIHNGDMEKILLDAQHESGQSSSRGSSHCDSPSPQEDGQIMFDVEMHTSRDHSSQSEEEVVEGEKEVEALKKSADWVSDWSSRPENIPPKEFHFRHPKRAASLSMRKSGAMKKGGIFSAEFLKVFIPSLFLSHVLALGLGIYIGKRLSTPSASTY
UniProt Q9Z2X8, whole entry: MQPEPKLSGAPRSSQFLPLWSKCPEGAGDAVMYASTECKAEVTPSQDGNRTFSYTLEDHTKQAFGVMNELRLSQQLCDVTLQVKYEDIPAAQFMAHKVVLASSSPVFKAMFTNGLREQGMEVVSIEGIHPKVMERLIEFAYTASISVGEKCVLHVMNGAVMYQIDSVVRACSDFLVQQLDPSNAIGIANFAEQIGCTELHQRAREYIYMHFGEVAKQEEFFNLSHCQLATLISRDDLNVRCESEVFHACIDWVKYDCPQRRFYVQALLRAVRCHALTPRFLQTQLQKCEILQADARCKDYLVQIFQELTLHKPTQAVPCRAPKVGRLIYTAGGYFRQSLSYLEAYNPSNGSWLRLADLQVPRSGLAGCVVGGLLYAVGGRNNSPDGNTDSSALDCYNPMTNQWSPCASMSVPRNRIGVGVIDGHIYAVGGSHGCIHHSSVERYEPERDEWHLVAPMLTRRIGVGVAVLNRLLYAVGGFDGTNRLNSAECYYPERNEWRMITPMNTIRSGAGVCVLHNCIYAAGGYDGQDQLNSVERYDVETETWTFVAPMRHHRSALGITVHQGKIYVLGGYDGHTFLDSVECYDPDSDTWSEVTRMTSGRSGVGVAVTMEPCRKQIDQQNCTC
UniProt Q9Z0E8: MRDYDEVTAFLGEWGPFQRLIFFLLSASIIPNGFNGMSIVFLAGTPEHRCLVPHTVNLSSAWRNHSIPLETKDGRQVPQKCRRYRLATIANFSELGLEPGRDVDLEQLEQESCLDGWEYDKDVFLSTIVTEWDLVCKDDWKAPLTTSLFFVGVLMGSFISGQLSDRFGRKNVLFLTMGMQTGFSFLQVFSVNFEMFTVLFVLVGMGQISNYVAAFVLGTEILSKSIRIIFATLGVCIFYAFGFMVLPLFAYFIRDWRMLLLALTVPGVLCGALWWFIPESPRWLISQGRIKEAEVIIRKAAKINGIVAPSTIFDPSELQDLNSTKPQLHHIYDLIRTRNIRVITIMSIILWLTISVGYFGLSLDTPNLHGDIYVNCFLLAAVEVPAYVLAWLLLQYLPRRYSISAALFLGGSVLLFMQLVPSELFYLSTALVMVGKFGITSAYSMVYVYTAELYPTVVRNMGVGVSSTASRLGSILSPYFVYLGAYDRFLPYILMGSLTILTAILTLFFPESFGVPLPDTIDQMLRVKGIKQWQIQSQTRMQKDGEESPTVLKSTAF

Compound: CN[C@@H]1C[C@H]2O[C@@](C)([C@@H]1OC)n1c3ccccc3c3c4c(c5c6ccccc6n2c5c31)C(=O)NC4 [staurosporine]
Experiment: log2 fold change of tryptic peptide abundance, ligand vs vehicle (limited proteolysis) (log2 ratio); higher = more trypsin-susceptible (destabilized)
Settings: ligand concentration: 20 uM; sample: mouse liver crude lysate; replicate design: treated separately

Target | log2 fold change
UniProt Q9Z2F7 (peptide sequence: EFHFRHPK, peptide start residue: 154) | -0.0535
UniProt Q9Z2X8 (peptide sequence: TFSYTLEDHTK, peptide start residue: 51) | -0.534
UniProt Q9Z0E8 (peptide sequence: DGEESPTVLK, peptide start residue: 544) | -0.387
